Earlier results, collected in patent US10953113B2, “Imaging agents and methods of use” (The Board of Regents of the University of Oklahoma, priority 2016, dated 2021).

Tested on: infarcted myocardium
Details: infarct-avid scintigraphy; cited from earlier work

**Q.** For `O=P([O-])([O-])OP(=O)([O-])[O-].[99Tc]` [PyP, ^99mTc-pyrophosphate], which “Sensitivity for subendocardial infarct detection” value is on record?
**A.** 40%

**Q.** And the Specificity?
**A.** 64%
